Laboratory results: PubChem BioAssay AID652243 (Drosophila RNAi Screening Center, 2013)
In all, the deposit lists about 24,000 reagents; below is an unselected part of those with a known target gene and a result. Over the whole deposit, 246 (1%) are marked active. 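Plates not normalised; calls are printed but the firefly/Renilla ratio behind them is not deposited; fold cut for lowering reported inconsistently.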 Raw values vary from plate to plate and are shown uncorrected. Reagents against one gene are numbered here. Names joined by + are all predicted targets of the reagent. No sequences are given here. The record does not give: the amount of reagent.

Test: 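Knock-downs that decrease or increase androgen receptor reporter signal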 (primary screen)
System: Drosophila S2R+ cells
Reagents: long dsRNA against Drosophila genes
Time to read-out: 72 h (48 h, then 24 h hormone)
Challenge: synthetic androgen R1881 at 10 nM for 24 h
Detection: 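Firefly light from an androgen-responsive reporter and Renilla control light per well, raw and unnormalised, for each of two replicates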
Reading the numbers: firefly reporter light: higher = more light from androgen-responsive reporter; Renilla control light: higher = more constitutive control signal (cell number, transfection)
Call rule: 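Hit when the log firefly-to-Renilla ratio dropped or increased by a fixed fold versus the mean of GFP or LacZ controls across duplicate plates; lowering cut given as 1.5 and as 3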
Meaning of the calls: active = hit: reporter lowered or raised; inactive = no hit

gene knocked down,dsRNA no.,"firefly reporter light, replicate 1","firefly reporter light, replicate 2","Renilla control light, replicate 1","Renilla control light, replicate 2",call
CG14053,1,2.22e5,2.32e5,2.86e6,3.25e6,inactive
coro,1,8.98e5,6.50e5,1.48e6,1.18e6,inactive
coro,2,6.80e5,7.22e5,2.08e6,2.15e6,inactive
PolD3,1,8.93e5,6.27e5,2.21e6,1.89e6,inactive
PolD3,2,2.92e5,4.45e5,3.73e5,7.03e5,inactive
CG11110,1,99192,1.16e5,1.06e6,1.21e6,inactive
CG11110,2,2.69e5,2.30e5,6.37e5,8.93e5,inactive
CG6709 + Hez,1,3.05e5,2.78e5,3.75e6,2.75e6,inactive
CG6709 + Hez,2,3.95e5,4.09e5,4.50e6,3.40e6,inactive
Cpr100A,1,1.85e5,1.66e5,1.93e6,2.16e6,inactive
Cpr100A,2,3.76e5,6.71e5,1.01e6,1.66e6,inactive
CG10734,1,75309,58844,1.90e6,1.90e6,inactive
lncRNA:CR41601,1,1.30e6,1.23e6,2.54e6,2.24e6,inactive
CG18258,1,3.67e5,2.99e5,3.51e6,3.11e6,inactive
CG18258,2,4.41e5,3.83e5,1.12e6,1.05e6,inactive
CG6178,1,89918,68961,5.57e5,6.35e5,inactive
CG6428,1,4.17e5,2.91e5,4.25e6,2.70e6,inactive
ICA69,1,30605,26603,2.63e5,3.51e5,inactive
CG33964 + CG13175,1,3.47e5,2.39e5,2.40e6,2.17e6,inactive
CG33964 + CG13175,2,2.21e5,1.57e5,1.66e6,1.57e6,inactive
CG33964 + CG13175,3,2.10e5,1.78e5,1.14e6,1.05e6,inactive
CG34277 + CG31542,1,2.55e5,2.56e5,7.84e5,4.48e5,inactive
CG34277 + CG31542,2,7.47e5,5.82e5,7.05e5,7.10e5,inactive
CG34277 + CG31542,3,6.87e5,6.87e5,2.11e6,2.41e6,inactive
sut4,1,1.12e6,8.91e5,1.55e6,1.82e6,inactive
sut4,2,1.71e5,2.96e5,6.62e5,6.65e5,inactive
CG14857,1,1.12e5,1.29e5,2.27e6,2.50e6,inactive
Polr1B,1,6.67e5,9.25e5,1.58e6,1.22e6,inactive
SmydA-1,1,7.29e5,4.64e5,2.68e6,2.14e6,inactive
CG9784,1,3.10e5,3.69e5,3.30e6,3.58e6,inactive
CG9784,2,6.15e5,6.29e5,1.25e6,1.42e6,inactive
CNT1,1,3.38e5,1.96e5,1.75e6,1.33e6,inactive
CNT1,2,3.96e5,3.09e5,7.31e5,7.31e5,inactive
Surf6,1,70494,63289,5.49e5,4.62e5,inactive
Surf6,2,5.33e5,5.22e5,9.44e5,9.44e5,inactive
Prosap,1,82197,1.11e5,1.36e6,1.36e6,inactive
Prosap,2,1.03e6,1.07e6,2.12e6,2.19e6,inactive
Nph,1,2.39e5,1.68e5,2.59e6,2.51e6,inactive
EMC4,1,3.95e5,2.73e5,2.84e6,1.80e6,inactive
EMC4,2,3.68e5,2.95e5,7.85e5,7.85e5,inactive
Nulp1,1,1.14e6,9.19e5,1.13e6,1.23e6,inactive
CG12836,1,4.19e5,4.17e5,2.25e6,2.02e6,inactive
SCaMC,1,7.78e5,9.13e5,1.63e6,1.99e6,inactive
SCaMC,2,1.97e5,1.34e5,2.39e6,1.53e6,inactive
SCaMC,3,5.15e5,6.11e5,7.61e5,8.69e5,inactive
CG3651,1,1.88e5,2.32e5,1.39e6,1.35e6,inactive

No new results follow: 7 of the entries above.
gene knocked down,dsRNA no.,"firefly reporter light, replicate 1","firefly reporter light, replicate 2","Renilla control light, replicate 1","Renilla control light, replicate 2",call
EMC4,2,3.68e5,2.95e5,7.85e5,7.85e5,inactive
Nulp1,1,1.14e6,9.19e5,1.13e6,1.23e6,inactive
CG12836,1,4.19e5,4.17e5,2.25e6,2.02e6,inactive
SCaMC,1,7.78e5,9.13e5,1.63e6,1.99e6,inactive
SCaMC,2,1.97e5,1.34e5,2.39e6,1.53e6,inactive
SCaMC,3,5.15e5,6.11e5,7.61e5,8.69e5,inactive
CG3651,1,1.88e5,2.32e5,1.39e6,1.35e6,inactive

The listing continues:
gene knocked down,dsRNA no.,"firefly reporter light, replicate 1","firefly reporter light, replicate 2","Renilla control light, replicate 1","Renilla control light, replicate 2",call
LPCAT,1,3.55e5,3.65e5,3.38e6,3.07e6,inactive
LPCAT,2,2.81e5,3.51e5,3.21e6,3.12e6,inactive
Pif2,1,96828,1.06e5,1.66e6,1.70e6,inactive
Pif2,2,2.52e5,2.47e5,7.41e5,8.34e5,inactive
Dcr-2,1,1.94e5,2.02e5,4.06e6,4.06e6,inactive
Dcr-2,2,6.10e5,5.91e5,8.51e5,8.51e5,inactive
HnRNP-K,1,4.87e5,3.57e5,4.06e6,3.15e6,inactive
HnRNP-K,2,4.54e5,5.33e5,1.93e5,2.77e5,inactive
HnRNP-K,3,8.08e5,6.77e5,1.10e6,1.11e6,inactive
capu,1,84331,77479,1.05e6,7.80e5,inactive
capu,2,6.34e5,4.14e5,1.56e6,1.03e6,inactive
Np,1,3.61e5,2.02e5,1.75e6,1.27e6,inactive
Np,2,1.19e6,1.34e6,1.29e6,1.26e6,inactive
CG31875,1,6.51e5,5.49e5,3.52e5,4.22e5,inactive
CG7130,1,2.65e5,2.44e5,3.45e6,2.48e6,inactive
CG33259,1,3.42e5,2.48e5,2.81e6,2.36e6,inactive
CG33259,2,5.90e5,4.44e5,1.67e6,1.58e6,inactive
Prx6c,1,3.40e5,2.30e5,1.73e6,1.65e6,inactive
Prx6c,2,3.38e5,4.19e5,1.34e6,1.21e6,inactive
Fatp3,1,2.16e5,2.06e5,1.07e6,7.94e5,inactive
Fatp3,2,7.87e5,6.58e5,1.27e6,1.02e6,inactive
CG5181,1,6.69e5,8.38e5,1.30e6,1.27e6,inactive
Seipin,1,3.04e5,3.18e5,4.47e6,3.62e6,inactive
CG4596,1,89967,99762,1.74e6,1.90e6,inactive
CG4596,2,3.63e5,3.61e5,5.86e5,5.46e5,inactive
gro,1,58125,77831,6.01e5,5.77e5,inactive
Prx4,1,1.34e5,1.06e5,1.06e6,9.08e5,inactive
Prx4,2,6.28e5,4.46e5,4.46e5,5.08e5,inactive
